Among the data in publication PMC12377713 are binding values, retold here.

Sequences of proteins named here, by UniProt entry; tags and fusion partners are left off.
UniProt Q9Y519: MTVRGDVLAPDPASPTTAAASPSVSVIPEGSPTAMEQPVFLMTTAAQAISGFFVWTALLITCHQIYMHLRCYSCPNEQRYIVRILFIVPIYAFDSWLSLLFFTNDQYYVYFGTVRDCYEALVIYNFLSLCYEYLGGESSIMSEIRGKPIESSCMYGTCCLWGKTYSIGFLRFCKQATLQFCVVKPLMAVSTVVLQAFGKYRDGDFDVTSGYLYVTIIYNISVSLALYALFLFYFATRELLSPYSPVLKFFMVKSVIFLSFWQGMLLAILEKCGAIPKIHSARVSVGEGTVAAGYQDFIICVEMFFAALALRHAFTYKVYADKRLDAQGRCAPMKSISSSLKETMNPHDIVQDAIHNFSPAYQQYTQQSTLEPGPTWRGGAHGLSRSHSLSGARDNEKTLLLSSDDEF
UniProt Q93050: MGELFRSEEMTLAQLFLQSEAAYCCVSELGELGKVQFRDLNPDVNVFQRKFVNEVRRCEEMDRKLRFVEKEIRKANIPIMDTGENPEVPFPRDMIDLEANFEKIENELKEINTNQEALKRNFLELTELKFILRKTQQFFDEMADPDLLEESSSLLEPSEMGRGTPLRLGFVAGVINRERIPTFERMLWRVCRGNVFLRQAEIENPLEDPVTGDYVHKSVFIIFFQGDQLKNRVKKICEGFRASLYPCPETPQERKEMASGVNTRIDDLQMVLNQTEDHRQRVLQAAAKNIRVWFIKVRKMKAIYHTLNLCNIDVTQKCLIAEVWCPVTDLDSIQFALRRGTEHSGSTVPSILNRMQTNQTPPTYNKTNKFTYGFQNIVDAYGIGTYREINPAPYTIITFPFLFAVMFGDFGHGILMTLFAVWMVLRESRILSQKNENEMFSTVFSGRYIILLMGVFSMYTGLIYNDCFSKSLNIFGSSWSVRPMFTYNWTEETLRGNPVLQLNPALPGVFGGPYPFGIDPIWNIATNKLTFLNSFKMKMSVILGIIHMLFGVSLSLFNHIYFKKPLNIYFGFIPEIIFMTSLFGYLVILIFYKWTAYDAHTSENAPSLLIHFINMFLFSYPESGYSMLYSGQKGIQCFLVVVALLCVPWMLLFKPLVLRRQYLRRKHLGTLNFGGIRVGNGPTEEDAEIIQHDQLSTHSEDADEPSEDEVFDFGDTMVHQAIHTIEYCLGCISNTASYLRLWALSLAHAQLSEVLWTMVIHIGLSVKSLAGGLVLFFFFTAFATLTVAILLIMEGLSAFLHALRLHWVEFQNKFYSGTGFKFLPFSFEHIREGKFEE

No constants are given. Whether binding was seen depends on the method and setting. In cells and extracts the contact can be indirect. Some results given as binding are weak or reduced against the parent protein; the word gives no strength.

The experiment concerns the target FLAG–TMEM184B–GFP (human) (UniProt Q9Y519). Kind of experiment: co-IP; FLAG–TMEM184B–GFP (control FLAG-GFP) expressed in cells; IP of V0a1 and blot for FLAG, and reverse IP with FLAG antibody and blot for V0a1.

On to “ATP6V0A1 (the V0a1 subunit of the V-ATPase) (from UniProt Q93050 1-837)”, for which the binding result is “binds”.
